This is an account of results in paper doi:10.1101/2025.05.27.654799.

Chains of the proteins cited; added tags and fusions are not shown. Residues count along the entry.
UniProt P21802, residues 22-821: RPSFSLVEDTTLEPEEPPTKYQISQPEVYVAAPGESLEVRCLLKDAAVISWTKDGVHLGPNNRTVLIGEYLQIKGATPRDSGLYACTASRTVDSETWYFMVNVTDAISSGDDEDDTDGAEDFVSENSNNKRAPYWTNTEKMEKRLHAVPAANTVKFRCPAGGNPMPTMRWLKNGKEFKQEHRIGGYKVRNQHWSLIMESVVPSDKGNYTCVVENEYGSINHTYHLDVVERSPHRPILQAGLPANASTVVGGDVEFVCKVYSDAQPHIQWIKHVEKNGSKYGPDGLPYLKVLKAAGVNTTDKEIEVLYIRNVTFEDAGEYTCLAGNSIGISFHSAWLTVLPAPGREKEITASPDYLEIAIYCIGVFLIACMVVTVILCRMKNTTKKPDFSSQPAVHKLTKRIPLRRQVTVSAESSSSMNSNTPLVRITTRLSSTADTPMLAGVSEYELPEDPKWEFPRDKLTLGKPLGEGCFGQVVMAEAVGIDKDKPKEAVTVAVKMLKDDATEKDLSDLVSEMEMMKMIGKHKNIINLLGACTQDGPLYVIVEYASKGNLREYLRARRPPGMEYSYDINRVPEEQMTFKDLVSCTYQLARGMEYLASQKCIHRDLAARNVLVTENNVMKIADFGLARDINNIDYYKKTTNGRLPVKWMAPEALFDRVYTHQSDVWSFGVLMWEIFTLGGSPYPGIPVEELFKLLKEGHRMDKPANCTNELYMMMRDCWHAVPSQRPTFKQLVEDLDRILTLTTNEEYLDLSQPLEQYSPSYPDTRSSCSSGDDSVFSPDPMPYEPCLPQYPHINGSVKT
UniProt P22607, residues 23-806: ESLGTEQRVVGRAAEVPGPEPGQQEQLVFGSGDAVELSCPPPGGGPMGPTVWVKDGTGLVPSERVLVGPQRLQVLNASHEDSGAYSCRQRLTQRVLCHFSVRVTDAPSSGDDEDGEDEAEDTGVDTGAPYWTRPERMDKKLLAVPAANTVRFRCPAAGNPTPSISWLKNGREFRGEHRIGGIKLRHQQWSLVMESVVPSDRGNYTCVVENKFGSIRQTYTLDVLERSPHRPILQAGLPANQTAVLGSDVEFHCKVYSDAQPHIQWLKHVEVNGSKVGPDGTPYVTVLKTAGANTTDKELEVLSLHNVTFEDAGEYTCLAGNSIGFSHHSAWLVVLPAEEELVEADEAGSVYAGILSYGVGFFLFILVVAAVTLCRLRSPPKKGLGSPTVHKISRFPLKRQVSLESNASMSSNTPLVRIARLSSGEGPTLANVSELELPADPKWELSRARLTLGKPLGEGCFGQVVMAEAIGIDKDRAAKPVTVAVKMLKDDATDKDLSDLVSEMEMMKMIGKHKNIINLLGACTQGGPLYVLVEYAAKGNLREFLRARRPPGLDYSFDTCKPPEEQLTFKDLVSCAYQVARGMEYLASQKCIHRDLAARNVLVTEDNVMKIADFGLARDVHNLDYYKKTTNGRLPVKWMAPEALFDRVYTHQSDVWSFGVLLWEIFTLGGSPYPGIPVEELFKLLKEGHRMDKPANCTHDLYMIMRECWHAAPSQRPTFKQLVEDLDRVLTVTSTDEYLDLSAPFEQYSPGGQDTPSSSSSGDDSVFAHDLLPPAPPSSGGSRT

For the assay, the target named is FGFR1 WT-BirA*-Flag (human) (UniProt P11362). Kind of assay: proximity labelling.

Results are given in words; binding and its absence hold for the method and conditions named. In cells and extracts the contact can be indirect. These calls come from enrichment with a bait or labelling near it, and not all partners need be listed.

Take “FGFR2 (from UniProt P21802 22-821) (receptor)”: the binding entry is “binds”. The same measure for “FGFR3 (from UniProt P22607 23-806) (receptor)”: “binds”; for “protein tyrosine phosphatase non-receptor type 11 (PTPN11) (from UniProt Q06124 1-593) (enzyme)”: “binds”.

B1: fibroblast receptor substrate 2 (FRS2) (protein, UniProt Q8WU20 1-508)
chain: MGSCCSCPDKDTVPDNHRNKFKVINVDDDGNELGSGIMELTDTELILYTRKRDSVKWHYLCLRRYGYDSNLFSFESGRRCQTGQGIFAFKCARAEELFNMLQEIMQNNSINVVEEPVVERNNHQTELEVPRTPRTPTTPGFAAQNLPNGYPRYPSFGDASSHPSSRHPSVGSARLPSVGEESTHPLLVAEEQVHTYVNTTGVQEERKNRTSVHVPLEARVSNAESSTPKEEPSSIEDRDPQILLEPEGVKFVLGPTPVQKQLMEKEKLEQLGRDQVSGSGANNTEWDTGYDSDERRDAPSVNKLVYENINGLSIPSASGVRRGRLTSTSTSDTQNINNSAQRRTALLNYENLPSLPPVWEARKLSRDEDDNLGPKTPSLNGYHNNLDPMHNYVNTENVTVPASAHKIEYSRRRDCTPTVFNFDIRRPSLEHRQLNYIQVDLEGGSDSDNPQTPKTPTTPLPQTPTRRTELYAVIDIERTAAMSNLQKALPRDDGTSRKTRHNSTDLPM
Regarding B1, the binding result is on record as “binds”.
